According to patent US20250085283A1, “METHOD FOR QUANTIFYING NICOTINAMIDE ADENINE DINUCLEOTIDE (NAD+) OR NICOTINAMIDE MONONUCLEOTIDE (NMN), AND KIT AND FILTER PAPER FOR PERFORMING THE METHOD” (Teijin Limited, priority 2022, published 2025):

Assay: Chilled storage stability of NAD+ and NMN in blood spotted on filter paper (DBS, LC-MS/MS)
Assay type: physicochemical, human
Experimental: A filter paper, to which blood derived from a test subject is added (i.e., corresponding to a filter paper in Step 1 of the present invention), was searched for the optimal one for quantifying NAD+ and NMN when the filter paper with added blood derived from the test subject is stored in the refrigerator for a certain period of time.
From 5 subjects (adult men and women) per test, approximately 120 μL of blood (amount of 2 collection containers of the kit) was sampled by self-collection using an Micro Blood Collection Kit (Micro Blood Science Co., Ltd.), and was left to stand on ice until sample processing. The subjects were fasted on the morning of the sampling day, and samplings were performed around 9:00 am. The test was performed four times in total, with a total of 19 people performing evaluations, excluding one person due to insufficient sample blood volume.
The sampled blood was collected into 1.5 mL microtubes for each subject and mixed by gentle pipetting. Four types of filter papers (Whatman FTA DMPK-A Card/GE healthcare, QIAcard FTA DMPK-B Card/QIAGEN, QIAcard FTA DMPK-C Card/QIAGEN, Whatman 903 Protein saver card/Cytiva) were each spotted with 5 μL of blood (dropped/added) at multiple areas, sealed in a moisture absorption standard pouch (Moisture absorption-kun (registered trademark)/Maruto Sangyo Co., Ltd.), and stored in the refrigerator. Next, after chilled storing the blood-spotted filter paper for 2 days, 2 weeks (14 days or 15 days), or 1 month (30 days), the blood-spotted areas were cut out and collected in a 2 mL microtube. After adding 300 μL of a mixed aqueous solution of internal standard substances (NAD+-d4 and NMN-d4/Toronto Research Chemicals, Inc.) thereto and stirring using a vortex mixer, the mixture was mixed with a micromixer (TOMY MICRO TUBE MIXER MT-400, stirring speed 5) for 30 minutes at room temperature. The blood extract solution was dispensed by each 150 μL portion into a microtube, 300 μL of acetonitrile was added thereto, and the mixture was stirred using a vortex mixer, followed by centrifugation (24,250×g, 10 minutes, 4° C.). After centrifugation, 40 μL of the supernatant was dispensed into a vial and measured by LC-MS/MS.
In contrast, as a sample for initial values, 5 μL of blood was collected into a 2 mL microtube (no spotted filter paper), and 300 μL of a mixed aqueous solution of internal standard substances (NAD-d4 and NMN-d4/Toronto Research Chemicals, Inc.) was added thereto and stirred using a vortex mixer, and then the mixture was mixed using a micromixer (TOMY MICRO TUBE MIXER MT-400, stirring speed 5) for 30 minutes at room temperature. The blood extract solution was dispensed by each 150 μL portion into a microtube, 300 μL of acetonitrile was added thereto, and the mixture was stirred using a vortex mixer, followed by centrifugation (24,250×g, 10 minutes, 4° C.). After centrifugation, 40 μL of the supernatant was dispensed into a vial and measured by LC-MS/MS.

## NC(=O)c1ccc[n+]([C@@H]2O[C@H](COP(=O)([O-])OP(=O)(O)OC[C@H]3O[C@@H](n4cnc5c(N)ncnc54)[C@H](O)[C@@H]3O)[C@@H](O)[C@H]2O)c1 [NAD+, nicotinamide adenine dinucleotide]
Human blood on 903 card, chilled storage for 1 month
  Concentration (mean): 26.23 µM
Human blood on 903 card, chilled storage for 2 weeks
  Concentration (mean): 24.33 µM
Human blood on 903 card, chilled storage for 2 days
  Concentration (mean): 23.95 µM
Human blood on DMPK-A card, chilled storage for 1 month
  Concentration (mean): 20.69 µM
Human blood on DMPK-A card, chilled storage for 2 weeks
  Concentration (mean): 24.37 µM
Human blood on DMPK-A card, chilled storage for 2 days
  Concentration (mean): 24.05 µM
Human blood on DMPK-B card, chilled storage for 1 month
  Concentration (mean): 24.55 µM
Human blood on DMPK-B card, chilled storage for 2 weeks
  Concentration (mean): 27.43 µM
Human blood on DMPK-B card, chilled storage for 2 days
  Concentration (mean): 23.75 µM
Human blood on DMPK-C card, chilled storage for 1 month
  Concentration (mean): 16.74 µM
Human blood on DMPK-C card, chilled storage for 2 weeks
  Concentration (mean): 20.88 µM
Human blood on DMPK-C card, chilled storage for 2 days
  Concentration (mean): 22.02 µM
Human blood, filter paper: none, storage for 0 days (initial value, Table 8)
  Concentration (mean): 31.89 µM
